In patent US20220389057A1, “ENDOCYTOSIS ROUTING SEQUENCE PEPTIDE FOR CELL DELIVERY SYSTEMS” (SZEGEDI TUDOMÁNYEGYETEM, priority 2019, published 2022) one finds n1 and n2 data, which are given here for twelve molecules.

This series in a line: Isothermal titration calorimetry (ITC), binding to ganglioside GM1. Particulars: stoichiometry; for n1: first binding step, Table 1, pH 7.2 phosphate buffer, 35° C., GM1:DPC 1:5; for n2: second binding step, Table 1, pH 7.2, 35° C. The method, then: Isothermal calorimetric titrations (ITC) were performed with a MicroCal VP-ITC microcalorimeter in pH 7.2 phosphate buffer solution. In individual titrations, 15 μL GM1:DPC 1:5 containing solution was injected from the computer-controlled […] microsyringe at intervals of 300 s into the ligand solution, dissolved in the same buffer as the GM1. All measurements were carried out at 35° C. The ligands concentration in the cell was 15 μM, and the concentration of GM1 in the syringe was 300 μM. Control experiments were performed by injecting GM1 into the cell containing buffer but no ligands Experiments were repeated twice. The experimental data were fitted to the one binding site or two independent sites model (adjustable parameters: ΔHb1, Kd1, n1 and ΔHb2, Kd2, n2) using a nonlinear least-squares procedure. Errors were calculated by jackknife resampling.
Binding of Trp-Tyr-Lys-Tyr-Trp (WYKYW) and analogues to various ganglioside derivatives was tested as described under “Isothermal Titration calorimetry” to explore the specificity of the interaction between WYKYW and GM1. Affinity data for binding between WYKYW and various ganglioside derivatives (FIG. 1), and for binding between various mutated sequences of WYKYW and GM1 (Table 1) were obtained by Isothermal Titration calorimetry as described in Example 1 (General methods).
For orientation: Isothermal titration calorimetry measures the heat released or taken up as one component is titrated into another.

Consider `NCCCC[C@H](NC(=O)[C@H](Cc1ccc(O)cc1)NC(=O)[C@@H](N)Cc1c[nH]c2ccccc12)C(=O)N[C@@H](Cc1ccc(O)cc1)C(=O)N[C@H](Cc1c[nH]c2ccccc12)C(N)=O` [WYKYw], for which the n1 amounted to 1.24.
Take `NCCCC[C@H](NC(=O)[C@H](Cc1ccc(O)cc1)NC(=O)[C@@H](N)Cc1c[nH]c2ccccc12)C(=O)N[C@H](Cc1ccc(O)cc1)C(=O)N[C@@H](Cc1c[nH]c2ccccc12)C(N)=O` [WYKyW]: the n1 came to 0.93.
For the molecule `NCCCC[C@@H](NC(=O)[C@H](Cc1ccc(O)cc1)NC(=O)[C@@H](N)Cc1c[nH]c2ccccc12)C(=O)N[C@@H](Cc1ccc(O)cc1)C(=O)N[C@@H](Cc1c[nH]c2ccccc12)C(N)=O` [WYkYW], the n1 is reported as 1.86.
Take `NCCCC[C@H](NC(=O)[C@@H](Cc1ccc(O)cc1)NC(=O)[C@@H](N)Cc1c[nH]c2ccccc12)C(=O)N[C@@H](Cc1ccc(O)cc1)C(=O)N[C@@H](Cc1c[nH]c2ccccc12)C(N)=O` [WyKYW]: the n1 was 2.05.
`NCCCC[C@H](NC(=O)[C@H](Cc1ccc(O)cc1)NC(=O)[C@H](N)Cc1c[nH]c2ccccc12)C(=O)N[C@@H](Cc1ccc(O)cc1)C(=O)N[C@@H](Cc1c[nH]c2ccccc12)C(N)=O` [wYKYW] gave a n1 of 1.81.
As to Trp-Tyr-Lys-β^3-homo-Tyr-Trp [WYKbYW], the n1 is recorded as 0.49 and the n2 was 1.80.
For Trp-β^3-homo-Tyr-Lys-Tyr-Trp [WbYKYW] the same measures were 0.51 and 1.72.
For WAKYW [Ala point mutation of WYKYW], the n1 came out at 1.0.
In turn, WYAYW [Ala point mutation of WYKYW] yielded a n1 of 1.3.
For the molecule WYKAW [Ala point mutation of WYKYW], the n1 is reported as 1.0.
With WYKYA [Ala point mutation of WYKYW], the n1 stood at 1.0.
As for β^3-homo-Trp-Tyr-Lys-Tyr-Trp [bWYKYW], the n1 is 0.52 and the n2 was determined as 1.85.
